Here are results for 1 molecule from patent publication US8592179 (SCIL PROTEINS, dated 2013).

Amino acid sequences for entries named in this document (tags omitted). Residues count along the entry.
UniProt P01375, 77-233 limits assumed: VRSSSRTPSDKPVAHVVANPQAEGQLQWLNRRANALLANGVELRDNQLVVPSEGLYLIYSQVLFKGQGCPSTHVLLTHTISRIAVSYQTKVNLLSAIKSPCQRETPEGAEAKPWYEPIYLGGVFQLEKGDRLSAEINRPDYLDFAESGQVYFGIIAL

The assay has as its target T1, human TNFα (human, UniProt P01375 77-233).
T1 construct: Coated on ELISA plates at 1 µg/ml; also called tumor necrosis factor alpha
The experiment in a line: concentration-dependent ELISA; TNFα coated on plate; 2E11 titrated; anti-FLAG POD detection; sigmoidal fit. The protocol:
Specific binding of mutant 2E11 to human TNFα was assayed by a concentration dependant ELISA. Increasing amounts of purified AFFILIN® ubiquitin variant 2E11 were applied to Nunc MEDISORP® plates coated with BSA as controls. Antigen coating with 50 μl (1 μg/ml) per well was performed at 4° C. overnight. After washing the plates with PBS, 0.1% TWEEN® 20, pH 7.4 (PBST), the wells were blocked using blocking solution (PBS pH 7.4; 3% BSA; 0.5% TWEEN® 20) at 37° C. for 2 h. Wells were washed again with PBST. Different concentrations of ubiquitin variant 2E11 in 50 μl were then incubated in the wells at 37° C. for 1 h. After washing the wells with PBST the anti-FLAG POD conjugate (Sigma) was applied in a dilution of 1:2000 in PBST. Substrate reaction and signal read out was done as described in the Hit-ELISA chapter.

B1: TNFα binding ubiquitin variant 2E11 (designed binder, not shown: small tags and cut ends)
chain: MQIFVKTLTGKTITLEVEPNDLIAPVKWKIIDEEGIPADQQRLIWAGKQLEDWAGLSDYNIQKESTLHLVLRLRGGDYKDDDDKGLEHHHHHH
notes: Human ubiquitin variant selected from the SPA10 helix library by ribosome display against human TNFα; It was produced in E. coli from pET20b(+), purified by Ni-NTA and SEC, and detected through its Flag tag; also called mutant 2E11; AFFILIN ubiquitin variant 2E11
Regarding B1, the affinity, expressed as Kd, was 400 nM.
